The target of data set [1] is HER2 (ERBB2) on SKBR3 cells (UniProt P04626). The experiment in a line: flow cytometry. The conditions noted are these: protein on the cell surface, protein details: native on SKBR3 breast cancer cells, SA-FITC. For orientation: A flow cytometer gives signals particle by particle.
Data set [2] has as its target CD16 (FcgammaRIII) on PBMCs / enriched NK cells (UniProt P08637). The experiment in a line: flow cytometry. The conditions noted are these: protein on the cell surface, SA-FITC.
Data set [3] has the same target. In words: activity in cells. Particulars: protein on the cell surface.
Where [4] appears, read: SKBR3, 25 C 30 min, less than SEQ 1, label: 5'-biotin, single-stranded DNA.
[5] abbreviates: PBMCs/NK cells, less than dsA7 and dsA10, label: biotin, single-stranded DNA.
Setting [6] is: SKBR3, less than dsA7 and dsA10, label: biotin, single-stranded DNA.

Chains of the proteins cited; added tags and fusions are not shown. Residues count along the entry.
UniProt P08637, 17-254: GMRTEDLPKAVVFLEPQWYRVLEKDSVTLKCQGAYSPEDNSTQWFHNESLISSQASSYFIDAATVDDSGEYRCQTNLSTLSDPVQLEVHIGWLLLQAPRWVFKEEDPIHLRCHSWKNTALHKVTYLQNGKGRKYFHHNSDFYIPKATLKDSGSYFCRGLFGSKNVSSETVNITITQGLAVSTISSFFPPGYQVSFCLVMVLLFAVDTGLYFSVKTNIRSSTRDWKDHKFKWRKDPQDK

For part of these data: Results from cells or extracts need not show a direct contact. For part of these data: Weaker means in comparison with the reference protein, sequence or condition of that experiment.

As to “AACCGCCCAAATCCCTAAGAGTCTGCACTTGTCATTTTGTATATGTATTTGGTTTTTGGCTCTCACAGACACACTACACACGCACA [anti-HER2 aptamer SEQ 15]”, the binding result in data set [1] (setting [4]) is “binds more weakly”. In the case of “CCACTGCGGGGGTCTATACGTGAGGAAGAAGTGGAAAAAAAAAAAAAAAAAAAAGCAGCGGTGTGGGGGCAGCGGTGTGGGGGCAGCGGTGTGGGG / TTTTTTTTTTTTTTTTTTTT [dsA8]”, the binding result in data set [2] (PBMCs/NK cells, less than dsA7 and dsA10, label: biotin, folded or branched DNA, variant of dsA5) is listed as “binds more weakly”; in data set [1] (SKBR3, less than dsA7 and dsA10, label: biotin, folded or branched DNA, variant of dsA5) it was “binds more weakly”. Turning to “CCACTGCGGGGGTCTATACGTGAGGAAGAAGTGGAAAAAAAAAAAAAAAAAAAAGCAGCGGTGTGGGGGCAGCGGTGTGGGGGCAGCGGTGTGGGG [dsA5]”, the binding result in data set [2] (setting [5]) and in data set [1] (setting [6]) was “binds more weakly” throughout. As for “CCACTGCGGGGGTCTATACGTGAGGAAGAAGTGGAAAAAAAGCAGCGGTGTGGGGGCAGCGGTGTGGGGGCAGCGGTGTGGGG [dsA3]”, the binding result in data set [2] (setting [5]) and in data set [1] (setting [6]) was “binds more weakly” in each case. Regarding “CCACTGCGGGGGTCTATACGTGAGGAAGAAGTGGGCAGCGGTGTGGGGGCAGCGGTGTGGGGGCAGCGGTGTGGGG [dsA1]”, the binding result in data set [2] (setting [5]) and in data set [1] (setting [6]) was “binds more weakly” in each case. With “CCACTGCGGGGGTCTATACGTGAGGAAGAAGTGGGCAGGTC [anti-CD16 aptamer SEQ 3]”, the binding result in data set [2] (PBMCs and NK cells, 1000 nM, 25 C 30 min, similar to 3G8 antibody, label: 3'-biotin, single-stranded DNA) is reported as “binds”.

Take “CCACTGCGGGGGTCTATACGTGAGGAAGAAGTGGGCAGGTCAAAAAAAAAAAAAGCAGCGGTGTGGGGGCAGCGGTGTGGGGGCAGCGGTGTGGGG [dsA4]”: the binding result in data set [2] (setting [5]) and in data set [1] (setting [6]) was “binds more weakly” in each case. With “CCACTGCGGGGGTCTATACGTGAGGAAGAAGTGGGCAGGTCGCAGCGGTGTGGGGGCAGCGGTGTGGGGGCAGCGGTGTGGGG [dsA2]”, the binding result in data set [2] (setting [5]) and in data set [1] (setting [6]) was “binds more weakly” throughout. As to “GCAGCGGTGTGGGGGCAGCGGTGTGGGGGCAGCGGTGTGGGGAAAAAAAAAAAAAAAAAAAACCACTGCGGGGGTCTATACGTGAGGAAGAAGTGG / TTTTTTTTTTTTTTTTTTTT [dsA9]”, the binding result is recorded as “binds more weakly” in data set [2] (PBMCs/NK cells, less than dsA7 and dsA10, label: biotin, folded or branched DNA, variant of dsA6); “binds more weakly” in data set [1] (SKBR3, less than dsA7 and dsA10, label: biotin, folded or branched DNA, variant of dsA6). With “GCAGCGGTGTGGGGGCAGCGGTGTGGGGGCAGCGGTGTGGGGAAAAAAAAAAAAAAAAAAAACCACTGCGGGGGTCTATACGTGAGGAAGAAGTGG [dsA6]”, the binding result in data set [2] (setting [5]) and in data set [1] (setting [6]) was “binds more weakly” in each case. For the sequence “GCAGCGGTGTGGGGGCAGCGGTGTGGGGGCAGCGGTGTGGGGAAAAAAAAAAAAAAAAAAAACCACTGCGGGGGTCTATACGTGAGGAAGAAGTGGGCAGGTC / TTTTTTTTTTTTTTTTTTTT [dsA10]”, the “functional effect of the aptamer” value in data set [3] (ADCC lysis of SKBR3, at least 90% of maximum Trastuzumab cytotoxicity, folded or branched DNA, variant of dsA7, dose not given …) is reported as “active”.

For the sequence “GCAGCGGTGTGGGGGCAGCGGTGTGGGGGCAGCGGTGTGGGGAAAAAAAAAAAAAAAAAAAACCACTGCGGGGGTCTATACGTGAGGAAGAAGTGGGCAGGTC [dsA7]”, the “functional effect of the aptamer” value in data set [3] (ADCC lysis of SKBR3, dose-dependent up to 150 nM, inhibited by 150 nM 3G8 anti-CD16 antibody, single-stranded DNA) is “active”. Consider “TCTAAAAGGATTCTTCCCAAGGGGATCCAATTCAAACAGC [anti-HER2 aptamer SEQ 16]”, for which, in data set [1] (setting [4]), the binding result is “binds more weakly”.

The values are drawn from patent US20240026366.
